Measurements from patent US20260216142A1, “USES OF ZLN-005 AND RELATED COMPOUNDS” (priority 2022, published 2026).
Entries after “also recorded” stand apart in the source; their conditions may differ. At least one compound was matched to its structure with a doubt left.

Experiments:
[1] = system: cecal ligation and perforation (CLP) model; assay: CLP model of sepsis: survival and behavior; assay type: in vivo, C57BL/6 mice
Procedure: Cecal ligation and perforation was performed on C57BL/6 mice about 10 to 20 weeks of age. Mice were administered either ZLN-005 at 12 mg/kg (i.p.) or vehicle (DMSO) at the time of cecal ligation and perforation, 24 hours later, and 48 hours later (FIG. 1A).
C57BL/6 mice were purchased from Shimizu Laboratory Supplies Co., Ltd. (Kyoto, Japan). Mice were housed in specific-pathogen-free conditions with free access to food and water. Mice were anesthetized by inhalation of isoflurane (099-06571, FUJIFILM Wako Pure Chemical Corporation, Tokyo, Japan). A midline incision was made, followed by externalization, and the cecum was then ligated at half the distance between the distal pole and the base of the cecum and punctured with a 21-gauge needle (NN-2116R, Terumo Corporation, Tokyo, Japan). Next, a small amount of fecal mass from the punctured cecum was gently squeezed out to ensure patency of punctures, the cecum was relocated, and 6/0 Ethicon PROLENE Suture (Ethicon, Inc., Raritan, NJ, USA) was used to close the peritoneum and skin. Sham-operated mice underwent only incision and cecum exteriorization.
ZLN-005 (S7447, Selleck Chemicals, Houston, TX, USA) stock solutions were prepared in dimethyl sulfoxide (DMSO) (048-21981, FUJIFILM Wako Pure Chemical Corporation) adjusted to a 10 mM concentration. Mice were injected with ZLN-005 (12 mg/kg) or the same amount of DMSO as the control group every day from Day 0 to Day 2. Mice were examined continuously for survival until 6 days post-CLP.
The results are presented as the means±standard deviations. The statistical significance of differences among groups was evaluated using parametric unpaired t tests for bar graphs. Mantel-Cox tests were used for statistical analysis of datasets of Kaplan-Meier survival curves (Prism™ 9 software, GraphPad Prism Software Inc., San Diego, CA, USA). P<0.05 was considered to indicate significance.

[2] = system: THP-1 cells; assay: Autophagy flux (LC3 conversion, Western blotting) in LPS model of THP-1; assay type: cell-based, human; conditions: in the presence of the two autophagy inhibitors
Procedure: Cells were incubated at 37° C. in a humidified 5% CO2 incubator. […] After 48 hours, the supernatant of the medium was carefully removed to avoid detaching the cells attached to the bottom of the plate and replaced with new medium containing 1 μM ZLN-005 or DMSO (0.1%) as a control. […] For PI3K inhibition, the cells were seeded in the plate and added 200 nM Wortmannin (AG-CN2-0023-M001, Adipogen Life Sciences Inc.).
Protein levels were quantified using ImageJ™.

CC(C)(C)c1ccc(-c2nc3ccccc3[nH]2)cc1 [ZLN-005, 2-(4-tert-butylphenyl)-1H-benzimidazole]
probability of survival (Kaplan-Meier) ([1]; 12 mg/kg i.p. at CLP, 24 h and 48 h later, compared to vehicle (DMSO)): increased the probability of survival; also recorded: significantly better survival
deaths after 24 hours ([1]; 12 mg/kg i.p. daily Day 0 to Day 2, 24 hours post-CLP): no deaths
behavior of the animals ([1]; 2 hours after the first drug administration after CLP): spontaneously moved around
effect on the inhibitor-induced increase of LC3-II and LC3-II/I ratios [2]: no significant effect
